We go through one molecule from paper PMC4350344.

No constants are given. Whether binding was seen depends on the method and setting. In cells and extracts the contact can be indirect. These calls come from enrichment with a bait or labelling near it, and not all partners need be listed.

This experiment addresses protein-kinase-C-related kinase 1 (PRK1/PKN1) (human (endogenous in PC-3M-luc2)) (UniProt Q16512). The experiment is described as follows: affinity purification with mass spectrometry; immunoprecipitation with an anti-PRK1 antibody from PC-3M-luc2 cell extracts, then mass spectrometry.

B1: sperm-associated antigen 9 (SPAG9/JIP4) (protein, UniProt O60271-1 1-1321)
chain: MELEDGVVYQEEPGGSGAVMSERVSGLAGSIYREFERLIGRYDEEVVKELMPLVVAVLENLDSVFAQDQEHQVELELLRDDNEQLITQYEREKALRKHAEEKFIEFEDSQEQEKKDLQTRVESLESQTRQLELKAKNYADQISRLEEREAELKKEYNALHQRHTEMIHNYMEHLERTKLHQLSGSDQLESTAHSRIRKERPISLGIFPLPAGDGLLTPDAQKGGETPGSEQWKFQELSQPRSHTSLKVSNSPEPQKAVEQEDELSDVSQGGSKATTPASTANSDVATIPTDTPLKEENEGFVKVTDAPNKSEISKHIEVQVAQETRNVSTGSAENEEKSEVQAIIESTPELDMDKDLSGYKGSSTPTKGIENKAFDRNTESLFEELSSAGSGLIGDVDEGADLLGMGREVENLILENTQLLETKNALNIVKNDLIAKVDELTCEKDVLQGELEAVKQAKLKLEEKNRELEEELRKARAEAEDARQKAKDDDDSDIPTAQRKRFTRVEMARVLMERNQYKERLMELQEAVRWTEMIRASRENPAMQEKKRSSIWQFFSRLFSSSSNTTKKPEPPVNLKYNAPTSHVTPSVKKRSSTLSQLPGDKSKAFDFLSEETEASLASRREQKREQYRQVKAHVQKEDGRVQAFGWSLPQKYKQVTNGQGENKMKNLPVPVYLRPLDEKDTSMKLWCAVGVNLSGGKTRDGGSVVGASVFYKDVAGLDTEGSKQRSASQSSLDKLDQELKEQQKELKNQEELSSLVWICTSTHSATKVLIIDAVQPGNILDSFTVCNSHVLCIASVPGARETDYPAGEDLSESGQVDKASLCGSMTSNSSAETDSLLGGITVVGCSAEGVTGAATSPSTNGASPVMDKPPEMEAENSEVDENVPTAEEATEATEGNAGSAEDTVDISQTGVYTEHVFTDPLGVQIPEDLSPVYQSSNDSDAYKDQISVLPNEQDLVREEAQKMSSLLPTMWLGAQNGCLYVHSSVAQWRKCLHSIKLKDSILSIVHVKGIVLVALADGTLAIFHRGVDGQWDLSNYHLLDLGRPHHSIRCMTVVHDKVWCGYRNKIYVVQPKAMKIEKSFDAHPRKESQVRQLAWVGDGVWVSIRLDSTLRLYHAHTYQHLQDVDIEPYVSKMLGTGKLGFSFVRITALMVSCNRLWVGTGNGVIISIPLTETNKTSGVPGNRPGSVIRVYGDENSDKVTPGTFIPYCSMAHAQLCFHGHRDAVKFFVAVPGQVISPQSSSSGTDLTGDKAGPSAQEPGSQTPLKSMLVISGGEGYIDFRMGDEGGESELLGEDLPLEPSVTKAERSHLIVWQVMYGNE
Regarding B1, the binding entry was “binds”.
